Data published in PMC4752451.
No constants are given. Whether binding was seen depends on the method and setting. In cells and extracts the contact can be indirect. Binding calls can cover weak binding; strength is not graded here.

The chains behind the UniProt entries cited, without tags or fusion partners. Where a name states a change or a piece, a line headed by the entry shows the natural chain unless it says otherwise.
UniProt P33076: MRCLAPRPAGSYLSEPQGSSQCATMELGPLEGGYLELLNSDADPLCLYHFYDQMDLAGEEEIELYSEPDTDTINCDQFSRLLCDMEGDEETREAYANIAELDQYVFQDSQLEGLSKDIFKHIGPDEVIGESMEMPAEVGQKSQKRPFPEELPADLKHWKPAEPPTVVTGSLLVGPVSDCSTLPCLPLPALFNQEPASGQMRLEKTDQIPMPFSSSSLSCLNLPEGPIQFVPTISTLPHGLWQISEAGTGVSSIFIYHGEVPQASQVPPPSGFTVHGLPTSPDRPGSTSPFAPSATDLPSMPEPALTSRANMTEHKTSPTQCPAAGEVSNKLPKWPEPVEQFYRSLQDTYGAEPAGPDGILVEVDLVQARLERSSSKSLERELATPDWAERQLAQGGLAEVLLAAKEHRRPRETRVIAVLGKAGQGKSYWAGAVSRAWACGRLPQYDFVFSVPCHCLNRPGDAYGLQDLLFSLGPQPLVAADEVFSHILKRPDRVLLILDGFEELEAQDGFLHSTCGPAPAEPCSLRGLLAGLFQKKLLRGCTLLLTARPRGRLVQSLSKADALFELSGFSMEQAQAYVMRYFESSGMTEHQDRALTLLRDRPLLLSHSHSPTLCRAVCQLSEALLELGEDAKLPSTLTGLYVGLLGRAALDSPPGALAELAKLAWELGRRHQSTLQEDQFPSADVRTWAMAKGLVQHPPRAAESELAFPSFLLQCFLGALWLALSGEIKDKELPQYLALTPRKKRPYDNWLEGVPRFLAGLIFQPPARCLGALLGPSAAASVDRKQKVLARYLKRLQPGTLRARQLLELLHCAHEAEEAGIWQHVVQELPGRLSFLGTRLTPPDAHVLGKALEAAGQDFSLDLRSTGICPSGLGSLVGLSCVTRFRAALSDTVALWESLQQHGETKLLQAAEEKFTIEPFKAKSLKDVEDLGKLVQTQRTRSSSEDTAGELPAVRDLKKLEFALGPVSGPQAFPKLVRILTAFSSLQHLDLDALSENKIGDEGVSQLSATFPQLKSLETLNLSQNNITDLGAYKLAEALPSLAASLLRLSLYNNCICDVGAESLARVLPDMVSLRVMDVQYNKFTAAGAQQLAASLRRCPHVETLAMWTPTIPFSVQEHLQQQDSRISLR
UniProt P48382: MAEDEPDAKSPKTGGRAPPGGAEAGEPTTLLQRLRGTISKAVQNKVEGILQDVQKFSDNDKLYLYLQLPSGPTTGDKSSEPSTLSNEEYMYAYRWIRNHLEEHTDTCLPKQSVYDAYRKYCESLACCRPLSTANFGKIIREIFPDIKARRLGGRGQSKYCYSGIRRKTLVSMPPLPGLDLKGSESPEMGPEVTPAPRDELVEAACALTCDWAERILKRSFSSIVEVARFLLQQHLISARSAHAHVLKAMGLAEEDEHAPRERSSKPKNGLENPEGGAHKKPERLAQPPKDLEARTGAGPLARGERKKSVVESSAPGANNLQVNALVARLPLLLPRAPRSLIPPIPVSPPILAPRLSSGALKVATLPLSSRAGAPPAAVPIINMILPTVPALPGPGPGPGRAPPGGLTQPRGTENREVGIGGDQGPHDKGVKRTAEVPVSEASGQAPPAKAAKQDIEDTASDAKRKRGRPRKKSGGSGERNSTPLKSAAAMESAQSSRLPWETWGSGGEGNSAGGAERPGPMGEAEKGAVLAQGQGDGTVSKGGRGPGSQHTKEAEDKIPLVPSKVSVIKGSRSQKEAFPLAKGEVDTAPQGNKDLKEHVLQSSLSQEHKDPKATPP
UniProt Q96L91: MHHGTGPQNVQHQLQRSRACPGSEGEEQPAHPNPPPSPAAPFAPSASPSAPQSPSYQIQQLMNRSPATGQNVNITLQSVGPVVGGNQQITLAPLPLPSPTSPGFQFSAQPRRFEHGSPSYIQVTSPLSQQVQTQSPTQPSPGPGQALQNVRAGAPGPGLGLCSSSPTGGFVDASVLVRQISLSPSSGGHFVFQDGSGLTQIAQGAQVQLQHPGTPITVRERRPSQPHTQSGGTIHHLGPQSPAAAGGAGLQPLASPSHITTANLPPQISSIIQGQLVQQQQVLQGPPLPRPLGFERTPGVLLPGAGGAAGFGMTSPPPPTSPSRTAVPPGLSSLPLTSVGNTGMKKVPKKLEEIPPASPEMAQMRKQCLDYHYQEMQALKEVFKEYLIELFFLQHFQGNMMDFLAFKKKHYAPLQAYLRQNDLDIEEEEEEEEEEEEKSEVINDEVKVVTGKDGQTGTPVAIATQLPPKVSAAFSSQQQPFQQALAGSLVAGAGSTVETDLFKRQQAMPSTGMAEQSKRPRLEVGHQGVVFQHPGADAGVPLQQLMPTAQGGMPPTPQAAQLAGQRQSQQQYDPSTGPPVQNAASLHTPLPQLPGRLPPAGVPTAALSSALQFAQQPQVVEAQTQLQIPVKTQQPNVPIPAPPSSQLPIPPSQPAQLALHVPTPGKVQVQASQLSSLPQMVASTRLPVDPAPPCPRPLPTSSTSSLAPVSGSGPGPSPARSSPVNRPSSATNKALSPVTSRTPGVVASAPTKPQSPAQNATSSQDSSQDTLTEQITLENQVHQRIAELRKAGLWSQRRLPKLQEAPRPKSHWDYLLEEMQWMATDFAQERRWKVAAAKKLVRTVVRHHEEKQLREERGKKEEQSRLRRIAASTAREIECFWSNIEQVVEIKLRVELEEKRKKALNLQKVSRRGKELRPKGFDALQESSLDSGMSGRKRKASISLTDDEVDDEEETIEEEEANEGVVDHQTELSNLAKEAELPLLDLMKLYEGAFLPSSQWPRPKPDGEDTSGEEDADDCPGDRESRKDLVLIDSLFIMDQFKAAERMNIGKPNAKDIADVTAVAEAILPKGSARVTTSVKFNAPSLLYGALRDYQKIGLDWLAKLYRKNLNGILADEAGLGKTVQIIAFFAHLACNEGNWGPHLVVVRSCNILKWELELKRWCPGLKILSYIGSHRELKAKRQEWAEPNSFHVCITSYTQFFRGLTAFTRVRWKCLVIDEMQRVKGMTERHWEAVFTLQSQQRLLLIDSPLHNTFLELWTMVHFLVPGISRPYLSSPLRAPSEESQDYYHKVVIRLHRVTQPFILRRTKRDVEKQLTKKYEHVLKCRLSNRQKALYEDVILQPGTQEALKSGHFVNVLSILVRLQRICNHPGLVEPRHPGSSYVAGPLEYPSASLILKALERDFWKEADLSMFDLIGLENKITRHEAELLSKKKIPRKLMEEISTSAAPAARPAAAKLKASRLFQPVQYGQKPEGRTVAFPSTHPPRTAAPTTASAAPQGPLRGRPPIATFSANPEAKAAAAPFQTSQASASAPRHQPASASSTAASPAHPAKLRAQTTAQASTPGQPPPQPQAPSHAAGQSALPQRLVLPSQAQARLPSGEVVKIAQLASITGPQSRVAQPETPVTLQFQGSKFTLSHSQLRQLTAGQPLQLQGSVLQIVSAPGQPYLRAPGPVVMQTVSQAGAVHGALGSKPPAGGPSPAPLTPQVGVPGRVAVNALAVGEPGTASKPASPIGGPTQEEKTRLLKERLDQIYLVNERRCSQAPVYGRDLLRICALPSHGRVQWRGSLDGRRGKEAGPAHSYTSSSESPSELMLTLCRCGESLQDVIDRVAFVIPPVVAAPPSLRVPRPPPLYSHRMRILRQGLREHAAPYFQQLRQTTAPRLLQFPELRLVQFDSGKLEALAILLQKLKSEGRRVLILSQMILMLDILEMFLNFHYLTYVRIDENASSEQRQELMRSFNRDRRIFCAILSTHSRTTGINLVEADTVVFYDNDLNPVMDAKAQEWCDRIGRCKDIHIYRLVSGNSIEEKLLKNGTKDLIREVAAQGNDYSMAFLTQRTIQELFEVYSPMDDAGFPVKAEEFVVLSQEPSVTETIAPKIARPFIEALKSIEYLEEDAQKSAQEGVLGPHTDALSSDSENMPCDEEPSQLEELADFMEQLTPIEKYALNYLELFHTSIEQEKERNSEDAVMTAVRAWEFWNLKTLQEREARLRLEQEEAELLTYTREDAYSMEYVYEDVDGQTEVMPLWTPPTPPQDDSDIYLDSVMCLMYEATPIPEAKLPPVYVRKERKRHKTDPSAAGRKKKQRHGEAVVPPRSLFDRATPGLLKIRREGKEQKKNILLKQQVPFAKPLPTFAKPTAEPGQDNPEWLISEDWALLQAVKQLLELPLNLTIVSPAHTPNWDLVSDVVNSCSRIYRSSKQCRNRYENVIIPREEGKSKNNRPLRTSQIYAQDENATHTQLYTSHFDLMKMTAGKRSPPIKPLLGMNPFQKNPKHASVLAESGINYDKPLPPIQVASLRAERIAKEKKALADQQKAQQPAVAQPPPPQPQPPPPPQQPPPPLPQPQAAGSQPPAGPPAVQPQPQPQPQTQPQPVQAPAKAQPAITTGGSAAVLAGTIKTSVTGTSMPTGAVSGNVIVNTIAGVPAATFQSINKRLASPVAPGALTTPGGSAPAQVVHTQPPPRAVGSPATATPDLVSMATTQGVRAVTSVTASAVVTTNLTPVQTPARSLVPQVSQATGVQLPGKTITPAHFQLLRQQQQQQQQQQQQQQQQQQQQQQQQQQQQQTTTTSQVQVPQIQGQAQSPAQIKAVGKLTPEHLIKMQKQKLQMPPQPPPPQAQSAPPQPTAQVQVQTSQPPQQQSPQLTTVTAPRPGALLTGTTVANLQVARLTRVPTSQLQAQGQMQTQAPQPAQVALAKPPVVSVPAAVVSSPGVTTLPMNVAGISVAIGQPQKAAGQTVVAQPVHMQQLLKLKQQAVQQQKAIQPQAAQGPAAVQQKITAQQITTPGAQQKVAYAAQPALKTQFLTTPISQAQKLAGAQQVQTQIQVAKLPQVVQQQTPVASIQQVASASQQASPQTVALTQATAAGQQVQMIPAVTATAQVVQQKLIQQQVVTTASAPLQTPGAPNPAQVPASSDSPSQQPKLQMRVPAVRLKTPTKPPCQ
UniProt P20226: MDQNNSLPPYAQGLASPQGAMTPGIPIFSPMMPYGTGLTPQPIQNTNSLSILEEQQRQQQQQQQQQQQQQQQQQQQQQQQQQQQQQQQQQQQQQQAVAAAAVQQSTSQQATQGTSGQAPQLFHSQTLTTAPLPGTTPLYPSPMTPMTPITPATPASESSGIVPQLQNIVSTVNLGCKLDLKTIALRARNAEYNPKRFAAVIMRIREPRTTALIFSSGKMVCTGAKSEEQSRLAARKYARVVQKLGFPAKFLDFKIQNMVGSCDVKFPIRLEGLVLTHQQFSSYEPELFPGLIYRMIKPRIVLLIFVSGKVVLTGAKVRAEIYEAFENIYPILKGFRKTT
UniProt P62195: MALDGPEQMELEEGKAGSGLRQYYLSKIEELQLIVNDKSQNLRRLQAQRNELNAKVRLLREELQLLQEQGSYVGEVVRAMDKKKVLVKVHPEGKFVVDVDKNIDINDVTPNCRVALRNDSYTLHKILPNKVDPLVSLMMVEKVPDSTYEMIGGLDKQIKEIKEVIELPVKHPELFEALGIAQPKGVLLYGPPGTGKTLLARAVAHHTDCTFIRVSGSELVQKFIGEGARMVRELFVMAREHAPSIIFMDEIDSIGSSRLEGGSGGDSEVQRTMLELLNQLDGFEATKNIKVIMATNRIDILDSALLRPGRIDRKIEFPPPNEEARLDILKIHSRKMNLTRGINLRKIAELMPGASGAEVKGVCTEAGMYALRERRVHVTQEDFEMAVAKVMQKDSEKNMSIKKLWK

Target: CIITA-∆36 (N-terminal deletion mutant of CIITA-FIII, I120E121 form) (human) (UniProt P33076)
Experiment: co-IP; protein extracts of stably transfected HEK293-EBNA cells immunoprecipitated with CIITA-specific antiserum K5 and protein A-sepharose; SDS-PAGE (8% gel) and western blotting for the co-precipitated endogenous proteins

Substance	binding
RFX5 subunit of the RFX complex (from UniProt P48382 1-616)	binds
chromatin remodeling protein p400/Domino (from UniProt Q96L91 1-3159)	no binding
TATA-box binding protein (TBP) (from UniProt P20226 1-339)	binds
coactivator p300 (from UniProt Q09472 1-2414)	binds
19S proteasome ATPase S8 (Sug1) (from UniProt P62195 1-406)	binds
